Source: patent publication US20230201244A1, “COMPOSITIONS AND METHODS FOR PREVENTING AND/OR TREATING MICROBIAL INFECTIONS” (University of Louisville Research Foundation, Inc., priority 2020, published 2023)
At least one structure is not confirmed: it was looked up by name or label, or the drawing left a doubt.

What was measured:
NF-κB (p65) = format: in vivo, C57BL/6 mice; conditions: inhibitor daily for three days at 5 mg/kg/d before intratracheal exosomes
[1] = system: lung epithelial cells (EpCAM^+); experiment: Lung apoptosis in mice given exosomes^Nsp12Nsp13 (TUNEL, Annexin V flow cytometry of EpCAM+ cells); format: in vivo, C57BL/6 mice; conditions: inhibitor pretreatment

Oc1c2ccccc2c2c3c(cccc13)N=N2 [SP600125]
not: lung macrophage NF-κB activity induced by exosomes^Nsp12Nsp13 (NF-κB (p65)) | induction of lung epithelial cell (EpCAM+) apoptosis ([1]; Annexin V flow cytometry, FIG. 5E) | lung apoptosis induced by exosomes^Nsp12Nsp13 (TUNEL staining) ([1]; lung sections, FIG. 5D)
